For one molecule, binding results are on record in patent US20240376185A1.

By UniProt entry, the sequences of proteins in these tests, tags left out. Residues count along the entry.
UniProt P49822, residues 25-608: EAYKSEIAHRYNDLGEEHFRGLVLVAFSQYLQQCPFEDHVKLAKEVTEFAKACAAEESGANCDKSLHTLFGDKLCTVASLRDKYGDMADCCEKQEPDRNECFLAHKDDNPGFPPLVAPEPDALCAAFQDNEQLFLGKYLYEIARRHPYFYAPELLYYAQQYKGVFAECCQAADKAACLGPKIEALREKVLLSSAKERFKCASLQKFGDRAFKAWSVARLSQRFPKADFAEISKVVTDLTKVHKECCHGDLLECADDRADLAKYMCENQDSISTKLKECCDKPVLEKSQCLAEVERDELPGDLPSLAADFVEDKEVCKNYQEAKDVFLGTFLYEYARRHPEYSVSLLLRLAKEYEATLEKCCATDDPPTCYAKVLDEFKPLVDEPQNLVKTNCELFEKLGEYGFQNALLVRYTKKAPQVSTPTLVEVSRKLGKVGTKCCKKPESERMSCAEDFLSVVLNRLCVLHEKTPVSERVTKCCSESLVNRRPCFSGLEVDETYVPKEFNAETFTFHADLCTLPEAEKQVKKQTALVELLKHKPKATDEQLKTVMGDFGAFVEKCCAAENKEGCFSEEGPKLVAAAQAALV
UniProt P35747, residues 25-607: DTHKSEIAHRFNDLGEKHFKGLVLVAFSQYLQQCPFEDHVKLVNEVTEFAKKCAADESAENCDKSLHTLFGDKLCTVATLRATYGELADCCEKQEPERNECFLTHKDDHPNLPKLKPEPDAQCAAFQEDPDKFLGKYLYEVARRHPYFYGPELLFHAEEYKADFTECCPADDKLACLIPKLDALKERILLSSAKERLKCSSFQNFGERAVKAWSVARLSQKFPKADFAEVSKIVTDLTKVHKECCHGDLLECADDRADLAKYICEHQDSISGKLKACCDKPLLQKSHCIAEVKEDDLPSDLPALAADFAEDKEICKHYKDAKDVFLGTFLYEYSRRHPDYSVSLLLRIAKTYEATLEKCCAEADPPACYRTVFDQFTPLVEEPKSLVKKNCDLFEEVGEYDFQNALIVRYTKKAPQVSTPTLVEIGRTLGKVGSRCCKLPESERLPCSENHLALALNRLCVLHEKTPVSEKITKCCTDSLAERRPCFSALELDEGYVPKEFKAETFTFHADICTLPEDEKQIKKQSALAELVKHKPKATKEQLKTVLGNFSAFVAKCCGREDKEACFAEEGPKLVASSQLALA

These are yes or no findings as the source states them, for the method shown. Some results given as binding are weak or reduced against the parent protein; the word gives no strength.

Test [1] deals with dog serum albumin (dog) (UniProt P49822). Description: ELISA, E. coli supernatant.
Test [2] deals with horse serum albumin (horse) (UniProt P35747). As to the kind of experiment: ELISA, E. coli supernatant. On the technique in general: An ELISA detects its analyte on a solid surface through an enzyme-linked reagent.

B1: SVA06 (VHH)
VHH: QVQLQESGGRLVQAEDSLRLSCAASGRTFVSYDMGWFRQAPGKEREFVAAINWRGYTTDYVDSVKGRFFISRDIAKSTVYLQMNNLKPEDTAVYYCAARQMSGSSRYSPPGRVGYDFWGQGTQVTVSS
For B1, the binding entry in test [1] and in test [2] was “binds” throughout.
